According to publication doi:10.1101/102285:
No constants are given. Whether binding was seen depends on the method and setting. Binding seen in cells or lysates may run through a third protein. Some results given as binding are weak or reduced against the parent protein; the word gives no strength. For some assays here: Tags and fused reporters may be left off the sequences shown.

Sequences of proteins named here, by UniProt entry; tags and fusion partners are left off.
UniProt Q8IWV8: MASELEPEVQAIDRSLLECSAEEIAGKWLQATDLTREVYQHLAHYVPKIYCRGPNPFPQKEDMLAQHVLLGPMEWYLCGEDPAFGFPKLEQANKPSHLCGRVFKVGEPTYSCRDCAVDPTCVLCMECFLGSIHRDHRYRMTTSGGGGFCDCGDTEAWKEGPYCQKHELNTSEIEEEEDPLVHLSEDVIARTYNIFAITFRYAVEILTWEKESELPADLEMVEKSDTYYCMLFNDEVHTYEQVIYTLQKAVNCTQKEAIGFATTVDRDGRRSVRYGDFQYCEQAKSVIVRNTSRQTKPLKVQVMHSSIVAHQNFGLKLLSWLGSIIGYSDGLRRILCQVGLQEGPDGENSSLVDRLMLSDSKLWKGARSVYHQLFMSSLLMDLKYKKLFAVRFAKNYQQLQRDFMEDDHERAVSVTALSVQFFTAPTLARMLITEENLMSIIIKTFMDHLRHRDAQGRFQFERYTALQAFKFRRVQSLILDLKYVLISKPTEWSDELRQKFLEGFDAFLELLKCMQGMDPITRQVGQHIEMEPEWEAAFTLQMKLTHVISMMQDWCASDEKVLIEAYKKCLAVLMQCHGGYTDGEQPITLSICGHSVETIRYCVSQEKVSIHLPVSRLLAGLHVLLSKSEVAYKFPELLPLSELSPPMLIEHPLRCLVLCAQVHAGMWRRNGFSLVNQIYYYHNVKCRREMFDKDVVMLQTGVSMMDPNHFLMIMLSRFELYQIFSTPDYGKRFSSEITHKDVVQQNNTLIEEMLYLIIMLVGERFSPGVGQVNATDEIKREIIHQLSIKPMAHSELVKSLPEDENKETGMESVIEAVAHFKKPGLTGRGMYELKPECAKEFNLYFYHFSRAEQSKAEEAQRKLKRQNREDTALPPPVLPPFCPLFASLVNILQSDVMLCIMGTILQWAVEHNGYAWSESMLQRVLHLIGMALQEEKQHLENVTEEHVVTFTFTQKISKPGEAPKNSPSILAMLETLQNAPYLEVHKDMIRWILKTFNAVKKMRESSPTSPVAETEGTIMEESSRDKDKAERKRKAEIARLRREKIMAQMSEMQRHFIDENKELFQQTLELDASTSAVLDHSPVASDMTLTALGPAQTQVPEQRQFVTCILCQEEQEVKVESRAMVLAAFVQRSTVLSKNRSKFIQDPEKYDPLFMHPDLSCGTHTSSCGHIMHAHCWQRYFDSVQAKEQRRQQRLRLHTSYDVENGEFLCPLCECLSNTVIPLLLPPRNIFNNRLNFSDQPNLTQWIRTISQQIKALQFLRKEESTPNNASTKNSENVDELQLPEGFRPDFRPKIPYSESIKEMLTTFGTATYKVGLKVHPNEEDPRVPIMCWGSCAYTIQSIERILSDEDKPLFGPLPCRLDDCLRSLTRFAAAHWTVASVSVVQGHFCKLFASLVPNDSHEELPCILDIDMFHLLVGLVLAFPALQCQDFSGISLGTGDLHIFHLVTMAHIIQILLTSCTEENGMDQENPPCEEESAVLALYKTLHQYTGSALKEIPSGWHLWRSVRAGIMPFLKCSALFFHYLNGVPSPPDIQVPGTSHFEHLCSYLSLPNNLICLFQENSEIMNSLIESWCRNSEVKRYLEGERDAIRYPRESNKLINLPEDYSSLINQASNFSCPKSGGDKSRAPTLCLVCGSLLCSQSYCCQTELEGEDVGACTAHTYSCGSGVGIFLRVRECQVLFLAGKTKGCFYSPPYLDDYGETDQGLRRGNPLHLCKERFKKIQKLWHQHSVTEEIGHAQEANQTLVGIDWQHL

Legend:
TEX19.1-YFP (mouse) = target: T1, TEX19.1-YFP (mouse) (UniProt Q99MV2); assay: co-IP
T1 sequence: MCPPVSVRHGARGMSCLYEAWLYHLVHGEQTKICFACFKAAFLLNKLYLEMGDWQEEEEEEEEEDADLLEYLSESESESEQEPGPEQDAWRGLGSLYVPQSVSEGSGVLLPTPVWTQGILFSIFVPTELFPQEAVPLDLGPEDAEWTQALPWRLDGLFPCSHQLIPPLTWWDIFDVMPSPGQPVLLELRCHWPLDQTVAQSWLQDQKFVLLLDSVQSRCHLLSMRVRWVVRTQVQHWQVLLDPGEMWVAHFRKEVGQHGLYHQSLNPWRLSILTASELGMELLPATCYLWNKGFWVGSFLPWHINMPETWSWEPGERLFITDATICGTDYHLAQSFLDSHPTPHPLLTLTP

[1] = target: Type II N-end rule peptide (…) (Sindbis virus); assay: pull-down
[2] = target: Type I N-end rule peptide (…) (Sindbis virus); assay: pull-down
[3] = target: Negative control N-end rule peptide (…) (Sindbis virus); assay: pull-down
[4] = target: E3 ubiquitin ligase UBR2 (endogenous) (human (endogenous in HEK293/HEK293T)) (UniProt Q8IWV8); assay: pull-down

E3 ubiquitin ligase UBR2 (endogenous) (from UniProt Q8IWV8 1-1755) (enzyme)
binding (TEX19.1-YFP (mouse)): binds
binding [1]: binds
binding [2]: no binding
binding [3]: no binding

B1: STREP-tagged TEX19.1 (protein, UniProt Q99MV2 1-351)
chain: MCPPVSVRHGARGMSCLYEAWLYHLVHGEQTKICFACFKAAFLLNKLYLEMGDWQEEEEEEEEEDADLLEYLSESESESEQEPGPEQDAWRGLGSLYVPQSVSEGSGVLLPTPVWTQGILFSIFVPTELFPQEAVPLDLGPEDAEWTQALPWRLDGLFPCSHQLIPPLTWWDIFDVMPSPGQPVLLELRCHWPLDQTVAQSWLQDQKFVLLLDSVQSRCHLLSMRVRWVVRTQVQHWQVLLDPGEMWVAHFRKEVGQHGLYHQSLNPWRLSILTASELGMELLPATCYLWNKGFWVGSFLPWHINMPETWSWEPGERLFITDATICGTDYHLAQSFLDSHPTPHPLLTLTP
binding [4]: binds
